Data as given in patent US20220098591.
The comparison behind a weaker result is the experiment's own reference, which may not be listed here. Construct, isoform or probe ends are uncertain for at least one entry. Whether high values mean tight binding is not given here for every scale.

Amino acid sequences for entries named in this document (tags omitted). Chains listed by the source or under a name are the forms on record and can include a tag or linker.
UniProt P15692, other isoform, or with tags, fused parts or gaps: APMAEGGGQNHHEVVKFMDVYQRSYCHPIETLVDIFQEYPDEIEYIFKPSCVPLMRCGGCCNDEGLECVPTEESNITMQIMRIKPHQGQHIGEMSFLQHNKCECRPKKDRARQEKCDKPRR

Target: VEGF-A121 (Homo sapiens) (UniProt P15692)
Test: competition with a labelled probe
Details: 5' C6NH2, 3' idT, purified recombinant protein
[1] = all G 2'-F, A,C,U 2'-OMe, variant of Aptamer 26

Sequence | binding result [1] | further results
ACCCGCGCGGAGGGGUUUCAUUAUCCCGUUUGU [Aptamer 277] | – | binding signal (fold worse than Aptamer 141) (2'-F G except 2'-OMe G at 39 (Aptamer 141 numbering), 2'-OMe A,C,U, SP3 spacer between parts): > 100
ACCCGCGCGGAGGGGUUUCAUUAUCCCGUUUGU [Aptamer 278] | – | binding signal (fold worse than Aptamer 141) (2'-F G except 2'-OMe G at 22,39 (Aptamer 141 numbering), 2'-OMe A,C,U, SP3 spacer between parts): > 100
AGGCCGAAUCCGCGCGGAGGGGUUUCAUUAUCCCGUUUUUCGGCUU [Aptamer 133] | binds more weakly | –
AGGCCGACCCGCGCGGAGGGGUUUCAUUACCCCGUUUGUCGGCUU [Aptamer 201] | – | binding result (2'-F G except 2'-OMe G at 6,22,39, 2'-OMe A,C,U, SP3 spacer at 9 between parts): binds
AGGCCGACCCGCGCGGAGGGGUUUCAUUAUCCCGUUUGUCGGCUU [Aptamer 188] | – | binding result (2'-F G except 2'-OMe G at 6, 2'-OMe A,C,U, SP3 spacer at 9 between parts): binds
AGGCCGACCCGCGCGGAGGGGUUUCAUUAUCCCGUUUGUCGGCUU [Aptamer 189] | – | binding result (2'-F G except 2'-OMe G at 12, 2'-OMe A,C,U, SP3 spacer at 9 between parts): binds
AGGCCGACCCGCGCGGAGGGGUUUCAUUAUCCCGUUUGUCGGCUU [Aptamer 190] | – | binding result (G 2'-F except G14 2'-OMe, A,C,U 2'-OMe, Sp3 joins the two parts, variant of Aptamer 141): binds more weakly
AGGCCGACCCGCGCGGAGGGGUUUCAUUAUCCCGUUUGUCGGCUU [Aptamer 191] | – | binding result (2'-F G except 2'-OMe G at 16, 2'-OMe A,C,U, SP3 spacer at 9 between parts): binds more weakly
AGGCCGACCCGCGCGGAGGGGUUUCAUUAUCCCGUUUGUCGGCUU [Aptamer 192] | – | binding result (2'-F G except 2'-OMe G at 17, 2'-OMe A,C,U, SP3 spacer at 9 between parts): binds more weakly
AGGCCGACCCGCGCGGAGGGGUUUCAUUAUCCCGUUUGUCGGCUU [Aptamer 193] | – | binding signal (fold worse IC50 vs Aptamer 141) (G 2'-F except G19 2'-OMe, A,C,U 2'-OMe, Sp3 joins the two parts, variant of Aptamer 141): > 100
AGGCCGACCCGCGCGGAGGGGUUUCAUUAUCCCGUUUGUCGGCUU [Aptamer 194] | – | binding signal (fold worse than Aptamer 141) (2'-F G except 2'-OMe G at 20, 2'-OMe A,C,U, SP3 spacer at 9 between parts): > 100
AGGCCGACCCGCGCGGAGGGGUUUCAUUAUCCCGUUUGUCGGCUU [Aptamer 195] | – | binding signal (fold worse than Aptamer 141) (2'-F G except 2'-OMe G at 21, 2'-OMe A,C,U, SP3 spacer at 9 between parts): > 100
AGGCCGACCCGCGCGGAGGGGUUUCAUUAUCCCGUUUGUCGGCUU [Aptamer 197] | – | binding signal (fold worse than Aptamer 141) (2'-F G except 2'-OMe G at 35, 2'-OMe A,C,U, SP3 spacer at 9 between parts): > 100
AGGCCGAUUCCGCGCGGAGGGGUUUCAUUAUCCCGUUUAUCGGCUU [Aptamer 134] | binds more weakly | –
AGGCCGCCCCCGCGCGGAGGGGUUUCAUUAUCCCGUUUGGCGGCUU [Aptamer 147] | binds more weakly | –
AGGCCGCCCCGCGCGGAGGGGUUUCAUUAUCCCGUUUGGCGGCUU [Aptamer 47] | – | IC50 (all G 2'-F, A,C,U 2'-OMe, Sp3 (1,3-propanediol) joins the two parts (position 9), AlphaLISA, blocks KDR binding, variant of Aptamer 26): 3.6 nM

Sequence | binding result [1] | further results
AGGCCGCCCCGCGCGGAGGGGUUUCAUUAUCCCGUUUGGCGGCUU [Aptamer 79] | binds more weakly | –
AGGCCGCCUACGCGCGUAGGGGUUUCAUUAUCCCGUUUGGCGGCUU [Aptamer 175] | binds more weakly | –
AGGCCGCCUCCGAGCGGAGGGGUUUCAUUAUCCCGUUUGGCGGCUU [Aptamer 152] | binds more weakly | –
AGGCCGCCUCCGCGCGGAGGACUUUCAUUAGUCCGUUUGGCGGCUU [Aptamer 128] | binds more weakly | –
AGGCCGCCUCCGCGCGGAGGGGUUCAUUACCCGUUUGGCGGCUU [Aptamer 109] | binds more weakly | –
AGGCCGCCUCCGCGCGGAGGGGUUUAUUAUCCCGUUUGGCGGCUU [Aptamer 64] | – | binding result (all G 2'-F, A,C,U 2'-OMe, Sp3 joins the two parts, variant of Aptamer 26): binds more weakly
AGGCCGCCUCCGCGCGGAGGGGUUUCAUUAUCCCGAUUGGCGGCUU [Aptamer 165] | binds more weakly | –
AGGCCGCCUCCGCGCGGAGGGGUUUCAUUAUCCCGGUUGGCGGCUU [Aptamer 167] | binds more weakly | –
AGGCCGCCUCCGCGCGGAGGGGUUUCAUUAUCCCGUAUGGCGGCUU [Aptamer 168] | binds more weakly | –
AGGCCGCCUCCGCGCGGAGGGGUUUCAUUAUCCCGUCUGGCGGCUU [Aptamer 169] | binds more weakly | –
AGGCCGCCUCCGCGCGGAGGGGUUUCAUUAUCCCGUGUGGCGGCUU [Aptamer 170] | binds more weakly | –
AGGCCGCCUCCGCGCGGAGGGGUUUCAUUAUCCCGUUAGGCGGCUU [Aptamer 171] | binds more weakly | –
AGGCCGCCUCCGCGCGGAGGGGUUUCAUUAUCCCGUUCGGCGGCUU [Aptamer 172] | binds more weakly | –
AGGCCGCCUCCGCGCGGAGGGGUUUCAUUAUCCCGUUGGGCGGCUU [Aptamer 173] | binds more weakly | –
AGGCCGCCUCCGGGCGGAGGGGUUUCAUUAUCCCGUUUGGCGGCUU [Aptamer 153] | binds more weakly | –
